No constants are given. Whether binding was seen depends on the method and setting. In cells and extracts the contact can be indirect. Here binding means that the protein was enriched with, or labelled near, the bait; the list need not be complete. No binding means not detected with the bait. Tags and fused reporters may be left off the sequences shown.
T1: TAP-XRN2 (5′-3′-exoribonuclease 2 with a tandem affinity purification tag) (human) (UniProt Q9H0D6)
T1 sequence: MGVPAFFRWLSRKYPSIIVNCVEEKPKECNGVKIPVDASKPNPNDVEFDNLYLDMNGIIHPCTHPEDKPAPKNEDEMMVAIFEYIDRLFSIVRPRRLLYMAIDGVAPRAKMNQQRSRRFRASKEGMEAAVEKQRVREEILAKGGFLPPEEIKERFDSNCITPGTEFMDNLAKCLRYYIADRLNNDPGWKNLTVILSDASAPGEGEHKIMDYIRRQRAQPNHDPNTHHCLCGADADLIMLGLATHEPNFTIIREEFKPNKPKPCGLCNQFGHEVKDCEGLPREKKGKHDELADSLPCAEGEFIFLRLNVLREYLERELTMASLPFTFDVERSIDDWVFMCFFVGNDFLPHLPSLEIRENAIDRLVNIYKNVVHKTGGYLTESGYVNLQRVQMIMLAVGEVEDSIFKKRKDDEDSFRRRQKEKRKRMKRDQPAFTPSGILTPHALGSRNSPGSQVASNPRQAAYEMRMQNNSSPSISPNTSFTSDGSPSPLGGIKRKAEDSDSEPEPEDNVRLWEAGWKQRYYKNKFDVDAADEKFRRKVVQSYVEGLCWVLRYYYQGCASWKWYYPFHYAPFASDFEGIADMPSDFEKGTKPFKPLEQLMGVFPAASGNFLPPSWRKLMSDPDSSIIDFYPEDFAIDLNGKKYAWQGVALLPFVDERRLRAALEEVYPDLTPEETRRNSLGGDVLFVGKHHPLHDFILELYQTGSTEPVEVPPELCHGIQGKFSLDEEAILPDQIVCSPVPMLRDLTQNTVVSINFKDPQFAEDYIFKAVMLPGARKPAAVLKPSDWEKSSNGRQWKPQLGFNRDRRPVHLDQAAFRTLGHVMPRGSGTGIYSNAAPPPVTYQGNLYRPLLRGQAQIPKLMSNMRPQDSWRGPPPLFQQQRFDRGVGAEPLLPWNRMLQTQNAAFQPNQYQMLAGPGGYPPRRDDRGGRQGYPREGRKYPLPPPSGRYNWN

Protein sequences, listed by entry. Tags and fused reporters are not part of them.
UniProt Q12888: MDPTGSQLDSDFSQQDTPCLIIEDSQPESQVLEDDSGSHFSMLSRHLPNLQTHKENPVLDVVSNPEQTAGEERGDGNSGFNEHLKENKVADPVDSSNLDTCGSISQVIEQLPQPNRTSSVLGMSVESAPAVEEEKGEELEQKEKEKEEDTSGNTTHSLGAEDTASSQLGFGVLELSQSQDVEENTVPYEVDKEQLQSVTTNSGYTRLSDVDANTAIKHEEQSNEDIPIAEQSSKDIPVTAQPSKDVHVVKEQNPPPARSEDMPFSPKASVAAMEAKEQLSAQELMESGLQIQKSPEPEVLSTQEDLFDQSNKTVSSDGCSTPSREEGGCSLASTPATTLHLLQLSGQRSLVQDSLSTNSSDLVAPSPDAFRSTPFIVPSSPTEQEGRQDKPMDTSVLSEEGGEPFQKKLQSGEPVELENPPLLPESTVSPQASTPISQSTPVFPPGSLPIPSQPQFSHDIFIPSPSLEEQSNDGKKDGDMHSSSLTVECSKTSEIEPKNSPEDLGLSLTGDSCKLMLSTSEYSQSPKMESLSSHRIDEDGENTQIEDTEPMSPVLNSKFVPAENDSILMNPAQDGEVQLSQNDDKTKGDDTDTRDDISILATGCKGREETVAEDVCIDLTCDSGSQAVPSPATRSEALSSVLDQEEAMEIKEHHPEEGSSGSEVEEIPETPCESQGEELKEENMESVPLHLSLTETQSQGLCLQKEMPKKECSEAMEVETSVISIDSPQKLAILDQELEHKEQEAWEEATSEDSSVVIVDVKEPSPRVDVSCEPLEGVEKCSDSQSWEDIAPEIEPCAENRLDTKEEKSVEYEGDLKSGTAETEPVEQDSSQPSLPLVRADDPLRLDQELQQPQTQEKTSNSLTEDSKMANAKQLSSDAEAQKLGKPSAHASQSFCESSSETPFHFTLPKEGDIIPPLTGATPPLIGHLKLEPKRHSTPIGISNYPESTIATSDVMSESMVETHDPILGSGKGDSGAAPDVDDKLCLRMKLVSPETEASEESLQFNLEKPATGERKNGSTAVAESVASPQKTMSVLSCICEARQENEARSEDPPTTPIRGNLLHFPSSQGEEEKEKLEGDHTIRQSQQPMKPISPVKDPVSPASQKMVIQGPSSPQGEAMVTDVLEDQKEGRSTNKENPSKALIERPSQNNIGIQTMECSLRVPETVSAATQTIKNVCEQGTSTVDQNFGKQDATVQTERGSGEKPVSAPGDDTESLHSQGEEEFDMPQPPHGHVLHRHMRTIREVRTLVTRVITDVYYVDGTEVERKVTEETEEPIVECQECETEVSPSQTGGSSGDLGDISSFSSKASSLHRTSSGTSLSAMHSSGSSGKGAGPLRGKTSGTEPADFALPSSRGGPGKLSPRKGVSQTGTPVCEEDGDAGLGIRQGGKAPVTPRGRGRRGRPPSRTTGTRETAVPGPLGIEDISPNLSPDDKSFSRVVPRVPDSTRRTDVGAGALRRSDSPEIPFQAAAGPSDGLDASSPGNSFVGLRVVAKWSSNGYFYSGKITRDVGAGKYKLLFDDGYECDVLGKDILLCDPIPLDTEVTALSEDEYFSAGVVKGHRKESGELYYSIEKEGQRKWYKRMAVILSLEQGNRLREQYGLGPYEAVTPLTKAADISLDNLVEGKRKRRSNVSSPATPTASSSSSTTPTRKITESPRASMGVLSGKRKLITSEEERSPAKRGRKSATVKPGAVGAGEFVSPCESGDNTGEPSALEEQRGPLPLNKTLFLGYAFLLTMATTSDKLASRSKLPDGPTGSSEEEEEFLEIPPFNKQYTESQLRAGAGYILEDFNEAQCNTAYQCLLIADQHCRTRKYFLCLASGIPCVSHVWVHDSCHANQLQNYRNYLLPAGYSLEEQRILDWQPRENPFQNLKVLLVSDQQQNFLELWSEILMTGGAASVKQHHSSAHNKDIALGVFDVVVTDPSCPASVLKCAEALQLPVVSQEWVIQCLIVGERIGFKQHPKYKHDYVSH
UniProt P78527: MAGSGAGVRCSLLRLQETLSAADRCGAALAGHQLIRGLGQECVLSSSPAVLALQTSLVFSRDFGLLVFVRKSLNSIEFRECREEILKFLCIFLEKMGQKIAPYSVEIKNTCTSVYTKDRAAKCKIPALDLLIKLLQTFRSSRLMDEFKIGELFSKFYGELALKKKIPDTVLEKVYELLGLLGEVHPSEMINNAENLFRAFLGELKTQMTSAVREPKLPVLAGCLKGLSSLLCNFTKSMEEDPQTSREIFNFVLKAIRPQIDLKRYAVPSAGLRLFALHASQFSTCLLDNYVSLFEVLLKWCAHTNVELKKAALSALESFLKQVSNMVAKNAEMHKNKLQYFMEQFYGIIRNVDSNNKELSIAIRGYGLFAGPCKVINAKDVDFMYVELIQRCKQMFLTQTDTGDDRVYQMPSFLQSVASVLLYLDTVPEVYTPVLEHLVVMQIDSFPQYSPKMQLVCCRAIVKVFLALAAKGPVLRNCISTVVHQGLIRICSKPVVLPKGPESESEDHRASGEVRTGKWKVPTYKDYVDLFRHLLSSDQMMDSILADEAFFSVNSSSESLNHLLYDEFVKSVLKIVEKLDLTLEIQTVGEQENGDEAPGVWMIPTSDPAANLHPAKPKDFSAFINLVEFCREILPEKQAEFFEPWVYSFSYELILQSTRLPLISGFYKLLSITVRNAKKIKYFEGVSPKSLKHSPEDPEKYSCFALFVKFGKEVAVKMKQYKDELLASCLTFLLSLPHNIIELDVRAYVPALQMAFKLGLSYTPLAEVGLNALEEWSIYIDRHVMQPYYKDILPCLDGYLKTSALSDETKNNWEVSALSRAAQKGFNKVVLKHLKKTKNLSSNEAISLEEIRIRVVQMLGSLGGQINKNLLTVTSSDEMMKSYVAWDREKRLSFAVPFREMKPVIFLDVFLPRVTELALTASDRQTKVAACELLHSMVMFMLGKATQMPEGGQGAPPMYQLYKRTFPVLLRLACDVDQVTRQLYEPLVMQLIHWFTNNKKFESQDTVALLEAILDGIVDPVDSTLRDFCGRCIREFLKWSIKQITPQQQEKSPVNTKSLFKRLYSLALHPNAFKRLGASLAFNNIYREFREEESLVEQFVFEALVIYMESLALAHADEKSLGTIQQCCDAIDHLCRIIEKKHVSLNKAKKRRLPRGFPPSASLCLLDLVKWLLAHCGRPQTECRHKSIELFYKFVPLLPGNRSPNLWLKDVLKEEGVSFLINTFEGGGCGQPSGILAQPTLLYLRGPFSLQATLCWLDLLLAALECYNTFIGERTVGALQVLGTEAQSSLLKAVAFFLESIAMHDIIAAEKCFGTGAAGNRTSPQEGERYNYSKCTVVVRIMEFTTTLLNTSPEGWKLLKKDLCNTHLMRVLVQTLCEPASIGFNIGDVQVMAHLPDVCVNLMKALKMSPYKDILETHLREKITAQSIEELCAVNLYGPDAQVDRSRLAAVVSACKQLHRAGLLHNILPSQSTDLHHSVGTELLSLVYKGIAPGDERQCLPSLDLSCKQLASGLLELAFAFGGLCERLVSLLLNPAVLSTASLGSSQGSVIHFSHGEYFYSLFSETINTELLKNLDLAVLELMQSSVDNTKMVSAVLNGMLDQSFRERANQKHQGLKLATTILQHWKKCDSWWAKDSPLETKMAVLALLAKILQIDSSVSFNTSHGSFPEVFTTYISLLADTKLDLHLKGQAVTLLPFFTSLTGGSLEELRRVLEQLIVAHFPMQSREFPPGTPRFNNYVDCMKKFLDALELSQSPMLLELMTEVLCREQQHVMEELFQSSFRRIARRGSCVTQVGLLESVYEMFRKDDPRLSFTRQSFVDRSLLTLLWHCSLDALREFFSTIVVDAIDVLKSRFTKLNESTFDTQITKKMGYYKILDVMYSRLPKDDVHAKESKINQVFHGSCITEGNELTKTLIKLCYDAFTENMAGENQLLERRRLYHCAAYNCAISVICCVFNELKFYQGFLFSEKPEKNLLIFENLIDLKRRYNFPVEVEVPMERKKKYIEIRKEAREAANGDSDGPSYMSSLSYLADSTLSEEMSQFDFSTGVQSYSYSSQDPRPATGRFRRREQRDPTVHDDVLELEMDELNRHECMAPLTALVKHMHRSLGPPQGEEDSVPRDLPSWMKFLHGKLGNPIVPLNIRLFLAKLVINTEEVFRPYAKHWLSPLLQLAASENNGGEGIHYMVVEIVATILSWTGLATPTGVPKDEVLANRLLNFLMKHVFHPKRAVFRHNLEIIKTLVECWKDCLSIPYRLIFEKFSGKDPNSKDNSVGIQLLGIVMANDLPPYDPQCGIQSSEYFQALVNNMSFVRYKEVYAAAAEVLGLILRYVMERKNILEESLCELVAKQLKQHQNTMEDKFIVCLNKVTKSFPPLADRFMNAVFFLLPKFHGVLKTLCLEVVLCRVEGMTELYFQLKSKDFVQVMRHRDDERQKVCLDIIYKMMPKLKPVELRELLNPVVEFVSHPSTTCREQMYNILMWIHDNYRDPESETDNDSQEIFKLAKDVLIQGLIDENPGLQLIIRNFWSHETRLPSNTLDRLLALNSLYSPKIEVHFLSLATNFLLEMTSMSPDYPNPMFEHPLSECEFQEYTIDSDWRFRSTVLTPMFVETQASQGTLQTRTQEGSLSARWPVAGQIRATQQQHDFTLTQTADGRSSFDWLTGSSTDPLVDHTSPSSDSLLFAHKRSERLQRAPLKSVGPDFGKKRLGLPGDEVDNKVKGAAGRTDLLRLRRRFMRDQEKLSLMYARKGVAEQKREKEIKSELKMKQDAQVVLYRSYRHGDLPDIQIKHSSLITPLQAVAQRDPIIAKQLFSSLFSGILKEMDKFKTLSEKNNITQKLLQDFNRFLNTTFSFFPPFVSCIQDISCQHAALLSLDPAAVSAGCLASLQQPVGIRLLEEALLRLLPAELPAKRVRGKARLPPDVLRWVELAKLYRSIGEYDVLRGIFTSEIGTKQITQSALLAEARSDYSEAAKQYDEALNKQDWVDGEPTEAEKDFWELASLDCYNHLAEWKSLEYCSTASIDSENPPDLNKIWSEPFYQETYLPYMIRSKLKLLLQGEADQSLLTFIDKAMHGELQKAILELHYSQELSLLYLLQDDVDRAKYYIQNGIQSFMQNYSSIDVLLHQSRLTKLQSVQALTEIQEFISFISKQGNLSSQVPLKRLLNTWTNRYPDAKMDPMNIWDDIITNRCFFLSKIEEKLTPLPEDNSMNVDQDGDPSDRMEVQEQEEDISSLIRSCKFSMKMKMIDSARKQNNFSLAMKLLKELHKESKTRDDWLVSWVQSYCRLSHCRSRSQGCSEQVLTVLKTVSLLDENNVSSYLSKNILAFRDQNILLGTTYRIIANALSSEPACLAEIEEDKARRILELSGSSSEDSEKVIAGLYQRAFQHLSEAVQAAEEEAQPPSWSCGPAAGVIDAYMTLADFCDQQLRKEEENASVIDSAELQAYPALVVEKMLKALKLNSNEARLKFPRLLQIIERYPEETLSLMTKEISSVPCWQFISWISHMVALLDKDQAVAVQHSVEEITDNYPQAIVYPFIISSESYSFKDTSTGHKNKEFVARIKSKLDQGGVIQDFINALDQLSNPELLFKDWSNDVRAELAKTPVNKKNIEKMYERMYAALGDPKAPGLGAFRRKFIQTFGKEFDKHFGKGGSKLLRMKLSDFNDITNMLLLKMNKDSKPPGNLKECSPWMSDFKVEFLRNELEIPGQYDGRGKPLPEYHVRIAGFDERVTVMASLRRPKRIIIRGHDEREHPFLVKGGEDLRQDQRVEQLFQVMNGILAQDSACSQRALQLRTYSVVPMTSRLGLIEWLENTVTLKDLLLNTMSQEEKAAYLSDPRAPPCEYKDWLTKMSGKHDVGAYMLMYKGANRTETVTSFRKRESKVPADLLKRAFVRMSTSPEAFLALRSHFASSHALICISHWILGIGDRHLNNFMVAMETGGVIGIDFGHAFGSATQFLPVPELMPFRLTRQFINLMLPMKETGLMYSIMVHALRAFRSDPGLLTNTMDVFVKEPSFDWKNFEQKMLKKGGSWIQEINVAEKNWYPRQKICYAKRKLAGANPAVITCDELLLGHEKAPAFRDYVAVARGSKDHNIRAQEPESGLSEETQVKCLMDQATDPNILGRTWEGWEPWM
UniProt P12004: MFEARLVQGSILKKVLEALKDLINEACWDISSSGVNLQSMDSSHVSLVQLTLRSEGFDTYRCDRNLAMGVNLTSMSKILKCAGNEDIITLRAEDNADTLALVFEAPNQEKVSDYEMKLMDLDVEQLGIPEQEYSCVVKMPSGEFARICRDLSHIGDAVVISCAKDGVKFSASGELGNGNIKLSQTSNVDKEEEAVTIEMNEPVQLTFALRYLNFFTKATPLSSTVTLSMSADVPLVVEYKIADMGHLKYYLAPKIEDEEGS

T2: TAP-XRN2 (5′-3′-exoribonuclease 2 with a tandem affinity purification tag) (human), Q9H0D6
T2 chain: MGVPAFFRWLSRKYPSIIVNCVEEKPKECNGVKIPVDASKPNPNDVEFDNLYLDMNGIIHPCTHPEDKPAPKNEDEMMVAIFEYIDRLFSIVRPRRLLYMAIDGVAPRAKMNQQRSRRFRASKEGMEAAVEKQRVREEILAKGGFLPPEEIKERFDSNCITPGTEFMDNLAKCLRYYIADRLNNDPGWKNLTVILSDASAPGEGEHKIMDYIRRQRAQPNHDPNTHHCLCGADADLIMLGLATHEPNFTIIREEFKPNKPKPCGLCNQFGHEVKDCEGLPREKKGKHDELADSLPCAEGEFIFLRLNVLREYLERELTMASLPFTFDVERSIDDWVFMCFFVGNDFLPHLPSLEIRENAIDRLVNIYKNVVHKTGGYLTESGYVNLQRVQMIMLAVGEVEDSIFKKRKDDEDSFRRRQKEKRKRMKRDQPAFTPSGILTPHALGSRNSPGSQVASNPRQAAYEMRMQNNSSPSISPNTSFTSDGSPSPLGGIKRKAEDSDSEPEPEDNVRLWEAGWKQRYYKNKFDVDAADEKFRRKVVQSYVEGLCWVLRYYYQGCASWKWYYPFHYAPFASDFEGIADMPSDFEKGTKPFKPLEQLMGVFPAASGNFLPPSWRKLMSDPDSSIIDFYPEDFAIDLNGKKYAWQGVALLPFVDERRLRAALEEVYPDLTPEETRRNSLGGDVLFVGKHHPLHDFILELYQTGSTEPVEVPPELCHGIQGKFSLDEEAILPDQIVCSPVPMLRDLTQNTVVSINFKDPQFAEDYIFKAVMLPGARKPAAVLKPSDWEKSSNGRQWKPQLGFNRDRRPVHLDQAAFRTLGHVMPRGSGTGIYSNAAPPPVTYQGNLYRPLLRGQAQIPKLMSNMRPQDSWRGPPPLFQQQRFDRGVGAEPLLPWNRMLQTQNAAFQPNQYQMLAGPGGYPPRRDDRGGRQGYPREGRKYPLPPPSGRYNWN


Target: T1, TAP-XRN2 (5′-3′-exoribonuclease 2 with a tandem affinity purification tag) (human)
Test: affinity purification with mass spectrometry; tandem affinity purification of TAP-XRN2 from stable cells, TAP-empty vector as negative control; three biological replicates; hits filtered (peptide sequences ≥ 5, PSM ≥ 5, % coverage ≥ 5, TAP-XRN2/TAP ratio > 1.0)
Details: not given

Row | Molecule | binding
1 | 53BP1 (from UniProt Q12888 1-1972) | no binding
2 | DDB1 (from UniProt Q16531 1-1140) | binds
3 | DNA-PKcs (from UniProt P78527 1-4128) | binds
4 | Ku70 (from UniProt P12956 1-609) | binds
5 | Ku80 (from UniProt P13010 1-732) | binds
6 | PARP1 (endogenous, TAP-XRN2 cells) (from UniProt P09874 1-1014) | binds
7 | PCNA (from UniProt P12004 1-261) | binds
8 | RPA1 (from UniProt P27694 1-616) | binds
9 | DDX1 (protein, UniProt Q92499 1-740) MAAFSEMGVMPEIAQAVEEMDWLLPTDIQAESIPLILGGGDVLMAAETGSGKTGAFSIPVIQIVYETLKDQQEGKKGKTTIKTGASVLNKWQMNPYDRGSAFAIGSDGLCCQSREVKEWHGCRATKGLMKGKHYYEVSCHDQGLCRVGWSTMQASLDLGTDKFGFGFGGTGKKSHNKQFDNYGEEFTMHDTIGCYLDIDKGHVKFSKNGKDLGLAFEIPPHMKNQALFPACVLKNAELKFNFGEEEFKFPPKDGFVALSKAPDGYIVKSQHSGNAQVTQTKFLPNAPKALIVEPSRELAEQTLNNIKQFKKYIDNPKLRELLIIGGVAARDQLSVLENGVDIVVGTPGRLDDLVSTGKLNLSQVRFLVLDEADGLLSQGYSDFINRMHNQIPQVTSDGKRLQVIVCSATLHSFDVKKLSEKIMHFPTWVDLKGEDSVPDTVHHVVVPVNPKTDRLWERLGKSHIRTDDVHAKDNTRPGANSPEMWSEAIKILKGEYAVRAIKEHKMDQAIIFCRTKIDCDNLEQYFIQQGGGPDKKGHQFSCVCLHGDRKPHERKQNLERFKKGDVRFLICTDVAARGIDIHGVPYVINVTLPDEKQNYVHRIGRVGRAERMGLAISLVATEKEKVWYHVCSSRGKGCYNTRLKEDGGCTIWYNEMQLLSEIEEHLNCTISQVEPDIKVPVDEFDGKVTYGQKRAAGGGSYKGHVDILAPTVQELAALEKEAQTSFLHLGYLPNQLFRTF | binds
10 | SSBP1 (protein, UniProt Q04837 17-148) ESETTTSLVLERSLNRVHLLGRVGQDPVLRQVEGKNPVTIFSLATNEMWRSGDSEVYQLGDVSQKTTWHRISVFRPGLRDVAYQYVKKGSRIYLEGKIDYGEYMDKNNVRRQATTIIADNIIFLSDQTKEKE | binds
11 | NONO (p54(nrb)) (protein, UniProt Q15233 1-471) MQSNKTFNLEKQNHTPRKHHQHHHQQQHHQQQQQQPPPPPIPANGQQASSQNEGLTIDLKNFRKPGEKTFTQRSRLFVGNLPPDITEEEMRKLFEKYGKAGEVFIHKDKGFGFIRLETRTLAEIAKVELDNMPLRGKQLRVRFACHSASLTVRNLPQYVSNELLEEAFSVFGQVERAVVIVDDRGRPSGKGIVEFSGKPAARKALDRCSEGSFLLTTFPRPVTVEPMDQLDDEEGLPEKLVIKNQQFHKEREQPPRFAQPGSFEYEYAMRWKALIEMEKQQQDQVDRNIKEAREKLEMEMEAARHEHQVMLMRQDLMRRQEELRRMEELHNQEVQKRKQLELRQEEERRRREEEMRRQQEEMMRRQQEGFKGTFPDAREQEIRMGQMAMGGAMGINNRGAMPPAPVPAGTPAPPGPATMMPDGTLGLTPPTTERFGQAATMEGIGAIGGTPPAFNRAAPGAEFAPNKRRRY | binds

Target: T2, TAP-XRN2 (5′-3′-exoribonuclease 2 with …)
Test: as above
Details: remark: other sources report otherwise

Row | Molecule | binding
12 | Kub5-Hera (K-H/RPRD1B), Q9NQG5 1-326 (protein) MSSFSESALEKKLSELSNSQQSVQTLSLWLIHHRKHAGPIVSVWHRELRKAKSNRKLTFLYLANDVIQNSKRKGPEFTREFESVLVDAFSHVAREADEGCKKPLERLLNIWQERSVYGGEFIQQLKLSMEDSKSPPPKATEEKKSLKRTFQQIQEEEDDDYPGSYSPQDPSAGPLLTEELIKALQDLENAASGDATVRQKIASLPQEVQDVSLLEKITDKEAAERLSKTVDEACLLLAEYNGRLAAELEDRRQLARMLVEYTQNQKDVLSEKEKKLEEYKQKLARVTQVRKELKSHIQSLPDLSLLPNVTGGLAPLPSAGDLFSTD | binds
13 | NF-kB repressing factor, O15226 1-690 (protein) MEKILQMAEGIDIGEMPSYDLVLSKPSKGQKRHLSTCDGQNPPKKQAGSKFHARPRFEPVHFVASSSKDERQEDPYGPQTKEVNEQTHFASMPRDIYQDYTQDSFSIQDGNSQYCDSSGFILTKDQPVTANMYFDSGNPAPSTTSQQANSQSTPEPSPSQTFPESVVAEKQYFIEKLTATIWKNLSNPEMTSGSDKINYTYMLTRCIQACKTNPEYIYAPLKEIPPADIPKNKKLLTDGYACEVRCQNIYLTTGYAGSKNGSRDRATELAVKLLQKRIEVRVVRRKFKHTFGEDLVVCQIGMSSYEFPPALKPPEDLVVLGKDASGQPIFNASAKHWTNFVITENANDAIGILNNSASFNKMSIEYKYEMMPNRTWRCRVFLQDHCLAEGYGTKKTSKHAAADEALKILQKTQPTYPSVKSSQCHTGSSPRGSGKKKDIKDLVVYENSSNPVCTLNDTAQFNRMTVEYVYERMTGLRWKCKVILESEVIAEAVGVKKTVKYEAAGEAVKTLKKTQPTVINNLKKGAVEDVISRNEIQGRSAEEAYKQQIKEDNIGNQLLRKMGWTGGGLGKSGEGIREPISVKEQHKREGLGLDVERVNKIAKRDIEQIIRNYARSESHTDLTFSRELTNDERKQIHQIAQKYGLKSKSHGVGHDRYLVVGRKRRKEDLLDQLKQEGQVGHYELVMPQAN | no binding
14 | CARF, Q9NXV6 1-580 (protein) MAQEVSEYLSQNPRVAAWVEALRCDGETDKHWRHRRDFLLRNAGDLAPAGGAASASTDEAADAESGTRNRQLQQLISFSMAWANHVFLGCRYPQKVMDKILSMAEGIKVTDAPTYTTRDELVAKVKKRGISSSNEGVEEPSKKRVIEGKNSSAVEQDHAKTSAKTERASAQQENSSTCIGSAIKSESGNSARSSGISSQNSSTSDGDRSVSSQSSSSVSSQVTTAGSGKASEAEAPDKHGSASFVSLLKSSVNSHMTQSTDSRQQSGSPKKSALEGSSASASQSSSEIEVPLLGSSGSSEVELPLLSSKPSSETASSGLTSKTSSEASVSSSVAKNSSSSGTSLLTPKSSSSTNTSLLTSKSTSQVAASLLASKSSSQTSGSLVSKSTSLASVSQLASKSSSQTSTSQLPSKSTSQSSESSVKFSCKLTNEDVKQKQPFFNRLYKTVAWKLVAVGGFSPNVNHGELLNAAIEALKATLDVFFVPLKELADLPQNKSSQESIVCELRCKSVYLGTGCGKSKENAKAVASREALKLFLKKKVVVKICKRKYRGSEIEDLVLLDEESRPVNLPPALKHPQELL | no binding

Reference: publication PMC7455564
